Results deposited as PubChem BioAssay AID743121 (NCATS, 2013).

Screen: 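Genes whose silencing strengthens cell killing by camptothecin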 (primary screen)
System: MDA-MB-231 cells, a human breast cancer line
Knock-down reagent: single siRNA against human genes, 20 nM siRNA (0.8 pmol per well)
Duration: 120 h (drug added 48 h after transfection, read 72 h later)
Conditions: camptothecin 20 nM (about EC30) for 72 h; vehicle 0.1% DMSO in parallel plates
Read-out: 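CellTiter-Glo ATP signal, scaled to control siRNA as percent viability; sensitisation given as log2 of untreated divided by camptothecin-treated viability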
Scale: log2 vehicle/camptothecin viability: higher = stronger sensitisation to camptothecin; viability with camptothecin: higher = more viable cells
Units: viability with camptothecin in % of control
Call rule: 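Active genes have an RSA gene-level p-value below 0.001, computed from the ratios of their separate siRNAs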
The deposit covers about 26,000 reagents; below is a part drawn at random. Of all reagents, 167 (0.63%) were called active. 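Calls are per gene from RSA p-values that are not deposited; an individual active-marked siRNA can sensitise only weakly.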 Reagents against one gene are numbered here. Not all columns of the deposit are shown. No sequences are given here.

After knock-down of TRIM43 (tripartite motif containing 43) #1, the record shows log2 vehicle/camptothecin viability -0.122; viability with camptothecin 78.5; inactive.
With knock-down of TRIM43 (tripartite motif containing 43) #2, the record shows log2 vehicle/camptothecin viability -0.159; viability with camptothecin 87.1; inactive.
For TRIM43 (tripartite motif containing 43) #3, the values are log2 vehicle/camptothecin viability 0.23; viability with camptothecin 69.3; inactive.
After knock-down of TRIM43 (tripartite motif containing 43) #4, the screen gave log2 vehicle/camptothecin viability 0.364; viability with camptothecin 39; inactive.
Silencing of DPYD (dihydropyrimidine dehydrogenase) #1 gave: log2 vehicle/camptothecin viability 0.314; viability with camptothecin 58.6; inactive.
After knock-down of DPYD (dihydropyrimidine dehydrogenase) #2, the screen gave log2 vehicle/camptothecin viability -0.56; viability with camptothecin 51.9; inactive.
DPYD (dihydropyrimidine dehydrogenase) #3 scored log2 vehicle/camptothecin viability -0.485; viability with camptothecin 73.4; inactive.
Knock-down of CCR5 (C-C motif chemokine receptor 5) #1 gave: log2 vehicle/camptothecin viability -0.2; viability with camptothecin 73.1; inactive.
Silencing of CCR5 (C-C motif chemokine receptor 5) #2 gave: log2 vehicle/camptothecin viability -0.377; viability with camptothecin 69.7; inactive.
CCR5 (C-C motif chemokine receptor 5) #3 scored log2 vehicle/camptothecin viability -0.584; viability with camptothecin 84; inactive.
For CCR5 (C-C motif chemokine receptor 5) #4, the entry reads log2 vehicle/camptothecin viability -0.389; viability with camptothecin 119; inactive.
Depletion of CCR5 (C-C motif chemokine receptor 5) #5 came out at: log2 vehicle/camptothecin viability -0.0401; viability with camptothecin 110; inactive.
After knock-down of CCR5 (C-C motif chemokine receptor 5) #6 the results were log2 vehicle/camptothecin viability -0.544; viability with camptothecin 69.2; inactive.
For CCR5 (C-C motif chemokine receptor 5) #7, the entry reads log2 vehicle/camptothecin viability -0.59; viability with camptothecin 73.5; inactive.

2 neighbouring records from above, quoted:
CCR5 (C-C motif chemokine receptor 5) #4 | log2 vehicle/camptothecin viability = -0.389; viability with camptothecin = 119; activity call = inactive
CCR5 (C-C motif chemokine receptor 5) #5 | log2 vehicle/camptothecin viability = -0.0401; viability with camptothecin = 110; activity call = inactive
